Results from patent publication US7772244B2, “Therapeutic agents for the treatment of migraine” (Bristol-Myers Squibb Company, priority 2004, dated 2010).
Some results were stated once for a whole list of compounds, not compound by compound.

Protein sequences, listed by entry. Tags and fused reporters are not part of them. Residues count along the entry.
UniProt O60894, 27-148: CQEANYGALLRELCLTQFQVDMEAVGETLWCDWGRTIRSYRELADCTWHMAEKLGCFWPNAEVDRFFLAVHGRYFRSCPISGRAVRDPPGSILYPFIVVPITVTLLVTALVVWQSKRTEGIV
UniProt Q16602, 23-461: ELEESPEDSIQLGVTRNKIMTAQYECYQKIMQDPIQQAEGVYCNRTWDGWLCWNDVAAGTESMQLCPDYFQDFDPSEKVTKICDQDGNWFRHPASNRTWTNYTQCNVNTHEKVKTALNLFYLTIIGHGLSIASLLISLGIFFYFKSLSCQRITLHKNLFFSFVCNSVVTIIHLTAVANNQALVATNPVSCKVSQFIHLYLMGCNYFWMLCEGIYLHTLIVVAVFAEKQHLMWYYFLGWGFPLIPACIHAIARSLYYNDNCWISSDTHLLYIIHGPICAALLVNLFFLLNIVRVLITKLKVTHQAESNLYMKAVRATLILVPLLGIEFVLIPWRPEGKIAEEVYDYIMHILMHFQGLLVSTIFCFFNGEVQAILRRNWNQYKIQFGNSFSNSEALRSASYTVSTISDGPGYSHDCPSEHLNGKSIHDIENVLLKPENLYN

molecular target: T1, Human CGRP receptor (Homo sapiens, UniProt O60894+Q16602); assay: CGRP Binding Assay (radioligand [125I]-CGRP displacement, SK-N-MC cell membrane homogenate); conditions: room temperature 2 h, read-out: Human CGRP receptor binding affinities
T1 construct: SK—N-MC homogenate (5 μg/well) was added in a volume of 100 μl; endogenous in cells; host or cells: SK-N-MC cells (membrane homogenate)

IC50, < 1 nM:
Cc1cc(C[C@@H](OC(=O)N2CCC(c3cc4ccccc4[nH]c3=O)CC2)C(=O)N2CCC(N3CC=CCC3)CC2)cc2cn[nH]c12 [Example 8, (R)-1-(4-(5,6-Dihydropyridin-1(2H)-yl)piperidin-1-yl)-3-(7-methyl-1H-indazol-5-yl)-1-oxopropan-2-yl 4-(2-oxo-1,2-dihydroquinolin-3-yl)piperidine-1-carboxylate]
Cc1cc(C[C@@H](OC(=O)N2CCC(O)(c3cc4ccccc4[nH]c3=O)CC2)C(=O)N2CCC(N3CCCCC3)CC2)cc2cn[nH]c12 [Example 6, (R)-3-(7-Methyl-1H-indazol-5-yl)-1-oxo-1-(4-(piperidin-1-yl)piperidin-1-yl)propan-2-yl 4-hydroxy-4-(2-oxo-1,2-dihydroquinolin-3-yl)piperidine-1-carboxylate]
Cc1cc(C[C@@H](OC(=O)N2CCC(n3cc(-c4ccccc4)[nH]c3=O)CC2)C(=O)N2CCC(N3CCCCC3)CC2)cc2cn[nH]c12 [Example 5, (R)-3-(7-Methyl-1H-indazol-5-yl)-1-oxo-1-(4-(piperidin-1-yl)piperidin-1-yl)propan-2-yl 4-(2-oxo-4-phenyl-2,3-dihydroimidazol-1-yl)piperidine-1-carboxylate]
Cc1cc(C[C@@H](OC(=O)N2CCC(c3cc4ccccc4[nH]c3=O)CC2)C(=O)N2CCN(C3CCCCC3)CC2)cc2cn[nH]c12 [Example 11, (R)-1-(4-Cyclohexylpiperazin-1-yl)-3-(7-methyl-1H-indazol-5-yl)-1-oxopropan-2-yl 4-(2-oxo-1,2-dihydroquinolin-3-yl)piperidine-1-carboxylate]
Cc1cc(C[C@@H](OC(=O)N2CCC(N3Cc4ccc(F)cc4NC3=O)CC2)C(=O)N2CCC(N3CCCCC3)CC2)cc2cn[nH]c12 [Example 7, (R)-3-(7-Methyl-1H-indazol-5-yl)-1-oxo-1-(4-(piperidin-1-yl)piperidin-1-yl)propan-2-yl 4-(7-fluoro-2-oxo-1,2-dihydroquinazolin-3(4H)-yl)piperidine-1-carboxylate]
Cc1cc(C[C@@H](OC(=O)N2CCC(N3Cc4cccc(F)c4NC3=O)CC2)C(=O)N2CCC(N3CCCCC3)CC2)cc2cn[nH]c12 [Example 3, (R)-3-(7-Methyl-1H-indazol-5-yl)-1-oxo-1-(4-(piperidin-1-yl)piperidin-1-yl)propan-2-yl 4-(8-fluoro-2-oxo-1,2-dihydroquinazolin-3(4H)-yl)piperidine-1-carboxylate]
Cc1cc(C[C@@H](OC(=O)N2CCC(c3cc4ccccc4[nH]c3=O)CC2)C(=O)N2CCCCC2)cc2cn[nH]c12 [Example 10, (R)-3-(7-Methyl-1H-indazol-5-yl)-1-oxo-1-(piperidin-1-yl)propan-2-yl 4-(2-oxo-1,2-dihydroquinolin-3-yl)piperidine-1-carboxylate]
Cc1cc(CC(OC(=O)N2CCC(c3cc4ccccc4[nH]c3=O)CC2)C(=O)N2CCC(N3CCCCC3)CC2)cc2cn[nH]c12 (racemic) [Example 14, (±)-3-(7-Methyl-1H-indazol-5-yl)-1-oxo-1-(4-(piperidin-1-yl)piperidin-1-yl)propan-2-yl 4-(2-oxo-1,2-dihydroquinolin-3-yl)piperidine-1-carboxylate]
Cc1cc(C[C@@H](OC(=O)N2CCC(c3cc4ccccc4[nH]c3=O)CC2)C(=O)N2CCC3(CCN(C)CC3)CC2)cc2cn[nH]c12 [Example 9, (R)-3-(7-Methyl-1H-indazol-5-yl)-1-oxo-1-(9-methyl-3,9-diaza-spiro[5.5]undecan-3-yl)propan-2-yl 4-(2-oxo-1,2-dihydroquinolin-3-yl)piperidine-1-carboxylate]
Cc1cc(CC(OC(=O)N2CCC(N3Cc4ccccc4NC3=O)CC2)C(=O)N2CCC(N3CCCCC3)CC2)cc2cn[nH]c12 (stereo not drawn) [Example 1, 3-(7-Methyl-1H-indazol-5-yl)-1-oxo-1-(4-(piperidin-1-yl)piperidin-1-yl)propan-2-yl 4-(1,2-dihydro-2-oxoquinazolin-3(4H)-yl)piperidine-1-carboxylate]
Cc1cc(C[C@@H](OC(=O)N2CCC(c3cc4cccc(F)c4[nH]c3=O)CC2)C(=O)N2CCC(N3CCCCC3)CC2)cc2cn[nH]c12 [Example 15, (R)-3-(7-Methyl-1H-indazol-5-yl)-1-oxo-1-(4-(piperidin-1-yl)piperidin-1-yl)propan-2-yl 4-(8-fluoro-2-oxo-1,2-dihydroquinolin-3-yl)piperidine-1-carboxylate]
Cc1cc(C[C@@H](OC(=O)N2CCC(c3cc4ccccc4[nH]c3=O)CC2)C(=O)N2CCN(c3ccc(F)cc3)CC2)cc2cn[nH]c12 [Example 12, (R)-1-(4-(4-Fluorophenyl)piperazin-1-yl)-3-(7-methyl-1H-indazol-5-yl)-1-oxopropan-2-yl 4-(2-oxo-1,2-dihydroquinolin-3-yl)piperidine-1-carboxylate]
Cc1cc(C[C@@H](OC(=O)N2CCC(N3Cc4ccccc4NC3=O)CC2)C(=O)N2CCC(N3CCCCC3)CC2)cc2cn[nH]c12 [Example 2]
Cc1cc(C[C@@H](OC(=O)N2CCC(c3cc4ccccc4[nH]c3=O)CC2)C(=O)N2CCN(c3ccncc3)CC2)cc2cn[nH]c12 [Example 13, (R)-3-(7-Methyl-1H-indazol-5-yl)-1-oxo-1-(4-(pyridin-4-yl)piperazin-1-yl)propan-2-yl 4-(2-oxo-1,2-dihydroquinolin-3-yl)piperidine-1-carboxylate]
Cc1cc(C[C@@H](OC(=O)N2CCC(c3cc4ccccc4[nH]c3=O)CC2)C(=O)N2CCC(N3CCCCC3)CC2)cc2cn[nH]c12 [Example 4, (R)-3-(7-Methyl-1H-indazol-5-yl)-1-oxo-1-(4-(piperidin-1-yl)piperidin-1-yl)propan-2-yl 4-(2-oxo-1,2-dihydroquinolin-3-yl)piperidine-1-carboxylate]
